Results are given in words; binding and its absence hold for the method and conditions named. Binding seen in cells or lysates may run through a third protein. Some results given as binding are weak or reduced against the parent protein; the word gives no strength. Where a sequence is shown, tags or fusion partners need not be part of it.

Results on one molecule are retold here after doi:10.1101/2025.05.28.656576.

Test in all cases: co-IP
The target in assay [1] is human SHOC1 ΔF1 aa1-288del (human) (UniProt Q5VXU9).
Assay [2] concerns the target human SHOC1 ΔF2 aa289-576del (human) (UniProt Q5VXU9).
Assay [3] has as its target human SHOC1 C-terminal 577-1444 (human) (UniProt Q5VXU9).
Assay [4] concerns the target human FLAG-tagged SHOC1 (human) (UniProt Q5VXU9).

B1: human MYC-tagged TEX11 (protein, UniProt Q8IYF3 1-940)
chain: MISAHCNLRLLCSSDSSASASQVAGTTEVVENLVTNDNSPNIPEAIDRLFSDIANINRESMAEITDIQIEEMAVNLWNWALTIGGGWLVNEEQKIRLHYVACKLLSMCEASFASEQSIQRLIMMNMRIGKEWLDAGNFLIADECFQAAVASLEQLYVKLIQRSSPEADLTMEKITVESDHFRVLSYQAESAVAQGDFQRASMCVLQCKDMLMRLPQMTSSLHHLCYNFGVETQKNNKYEESSFWLSQSYDIGKMDKKSTGPEMLAKVLRLLATNYLDWDDTKYYDKALNAVNLANKEHLSSPGLFLKMKILLKGETSNEELLEAVMEILHLDMPLDFCLNIAKLLMDHERESVGFHFLTIIHERFKSSENIGKVLILHTDMLLQRKEELLAKEKIEEIFLAHQTGRQLTAESMNWLHNILWRQAASSFEVQNYTDALQWYYYSLRFYSTDEMDLDFTKLQRNMACCYLNLQQLDKAKEAVAEAERHDPRNVFTQFYIFKIAVIEGNSERALQAIITLENILTDEESEDNDLVAERGSPTMLLSLAAQFALENGQQIVAEKALEYLAQHSEDQEQVLTAVKCLLRFLLPKIAEMPESEDKKKEMDRLLTCLNRAFVKLSQPFGEEALSLESRANEAQWFRKTAWNLAVQCDKDPVMMREFFILSYKMSQFCPSDQVILIARKTCLLMAVAVDLEQGRKASTAFEQTMFLSRALEEIQTCNDIHNFLKQTGTFSNDSCEKLLLLYEFEVRAKLNDPLLESFLESVWELPHLETKTFETIAIIAMEKPAHYPLIALKALKKALLLYKKEEPIDISQYSKCMHNLVNLSVPDGASNVELCPLEEVWGYFEDALSHISRTKDYPEMEILWLMVKSWNTGVLMFSRSKYASAEKWCGLALRFLNHLTSFKESYETQMNMLYSQLVEALSNNKGPVFHEHGYWSKSD
Take B1: the binding entry in assay [1] is “no binding”; in assay [2] it was “no binding”; in assay [3] it was “no binding”; in assay [4] it was “binds”.
